In PubChem BioAssay AID328 (DTP/NCI, 2004):
The list shows only some results of the screen, not a fair sample: it is rich in T/C values a quarter to a half above the control, in often repeated tests (any T/C) and in doses without a T/C. Further doses and runs are listed elsewhere. T/C is the treated group as % of the vehicle group. Some entries give survivors of the animals treated and no T/C: the source holds a T/C of zero for them, seemingly a mark for toxic or unscored doses. Some survivor counts are full or nearly so, which does not show that the dose was tolerated: the source hardly ever lists a survival T/C far under the control, and the zero likely stands for such cases as well. Counts of survivors are from the toxicity check (mostly the fifth day) where no day follows; animals may have died later. Schedule codes are those of the source, read here as Q, the interval in days (D) or hours (H), X, the number of doses. Some entries were tested several times; the values are given in rising order. Where survival is the endpoint, the PubChem record calls one and a half times the control and up active, and a quarter to a half above the control has no call in these data; cut-offs in other NCI protocols can differ. Some T/C values carry the count of animals alive at the toxicity check (mostly the fifth day); where none is given, no animal had died by that day.

Test system: BDF1 mice, P388 leukemia ip, median survival T/C
Assay: NCI In Vivo Anticancer Drug Screen. Data for tumor model P388 Leukemia (intraperitoneal) in B6D2F1 (BDF1) mice
Conditions: T/C endpoint: median survival time, higher T/C = longer survival
Method in brief: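 In tumour-bearing mice, survival after compound treatment is set against the vehicle group and given as a quotient.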

[1] = dose: 200.0 mg/kg/injection, schedule: Q01DX009 (ip), vehicle: saline with Tween-80
[2] = dose: 25.0 mg/kg/injection, schedule: Q01DX009 (ip), vehicle: saline with Tween-80
[3] = dose: 50.0 mg/kg/injection, schedule: Q04DX003 (ip), vehicle: saline with Tween-80
[4] = dose: 100.0 mg/kg/injection, schedule: Q04DX003 (ip), vehicle: saline with Tween-80
[5] = dose: 50.0 mg/kg/injection, schedule: Q01DX009 (ip), vehicle: saline with Tween-80

N#CS/C=C\C(N)=O
survivor count (dose: 3.0 mg/kg/injection, schedule: Q01DX009 (ip), vehicle: Klucel (hydroxypropylcellulose) (HPC)): 6 of 6
survivor count (dose: 12.0 mg/kg/injection, schedule: Q01DX009 (ip), vehicle: Klucel (hydroxypropylcellulose) (HPC)): 3 of 6
survivor count (dose: 25.0 mg/kg/injection, schedule: Q04DX003 (ip), vehicle: Klucel (hydroxypropylcellulose) (HPC)): 0 of 6

CCN(CC)CCNc1ccc(N=Nc2cnc3ccccc3c2)c2ccccc12
survivor count (dose: 170.0 mg/kg/injection, schedule: Q01DX009 (ip), vehicle: Klucel (hydroxypropylcellulose) (HPC)): 6 of 6

NNc1ncnc2c(C3OC(CO)C(O)C3O)[nH]nc12 (configuration not stated)
T/C (dose: 150.0 mg/kg/injection, schedule: Q01DX009 (ip), vehicle: water): 130 % of control [5 of 6 alive]

CN(C)CCCCc1cn(-c2ccccc2)c2ccccc12
T/C (dose: 25.0 mg/kg/injection, schedule: Q01DX009 (ip), vehicle: saline): 130 % of control
T/C (dose: 50.0 mg/kg/injection, schedule: Q01DX009 (ip), vehicle: saline): 130 % of control
survivor count (dose: 75.0 mg/kg/injection, schedule: Q01DX009 (ip), vehicle: saline): 2 of 6

[F][Fe]([F])([F])([F])([F])[F]
survivor count [1]: 3 of 6

N#Cc1nc2nc(C(F)(F)F)[nH]c2nc1C#N
survivor count (dose: 6.25 mg/kg/injection, schedule: Q01DX009 (ip), vehicle: saline with Tween-80): 6 of 6
survivor count [2]: 3 of 6
survivor count [3]: 5 of 6
survivor count [4]: 2 of 6

COc1ccc(CC2c3cc(OC)c(OC)c(OC)c3CC[N+]2(C)C)cc1Oc1ccc(CC2c3cc4c(c(OC)c3CCN2C)OCO4)cc1 (configuration not stated)
survivor count (dose: 25.0 mg/kg/injection, schedule: Q04DX002 (ip), vehicle: saline with Tween-80): 0 of 6
survivor count (dose: 50.0 mg/kg/injection, schedule: Q04DX002 (ip), vehicle: saline with Tween-80): 0 of 6
survivor count (dose: 100.0 mg/kg/injection, schedule: Q04DX002 (ip), vehicle: saline with Tween-80): 0 of 6

CC1(NC(=O)N(CCCl)N=O)CCCC1
survivor count (dose: 400.0 mg/kg/injection, schedule: Q04DX003 (ip), vehicle: saline with Tween-80): 2 of 6

NC(Cc1ccc(O)cc1)C(=O)N/N=C/c1ccc(N(CCCl)CCCl)cc1 (configuration not stated)
T/C (dose: 40.0 mg/kg/injection, schedule: Q04DX003 (ip), vehicle: Klucel (hydroxypropylcellulose) (HPC)): 129 and 138 % of control
survivor count (dose: 400.0 mg/kg/injection, schedule: Q04DX003 (ip), vehicle: Klucel (hydroxypropylcellulose) (HPC)): 5 of 6

CC(=O)C(Cl)C(C)=O.CC(=O)C(Cl)C(C)=O.CO.CO.[Ni]
survivor count (dose: 100.0 mg/kg/injection, schedule: Q01DX001 (ip), vehicle: Klucel (hydroxypropylcellulose) (HPC)): 1 of 6
survivor count (dose: 200.0 mg/kg/injection, schedule: Q01DX001 (ip), vehicle: Klucel (hydroxypropylcellulose) (HPC)): 0 of 6 and 6 of 6
survivor count (dose: 400.0 mg/kg/injection, schedule: Q01DX001 (ip), vehicle: Klucel (hydroxypropylcellulose) (HPC)): 0 of 6

CCOC(=O)/C(C#N)=C/c1c(-c2ccccc2)nn2ccccc12
survivor count [1]: 4 of 6

CCCCCCCCCCCC(=O)NC1CC(O[C@H]2C[C@](O)(C(=O)CO)Cc3c(O)c4c(c(O)c32)C(=O)c2c(OC)cccc2C4=O)OC(C)C1O (some centres not stated)
T/C (dose: 1.56 mg/kg/injection, schedule: Q01DX009 (ip), vehicle: water): 131 % of control

COc1ccc(C(=O)C=C(C(F)(F)F)C(F)(F)F)cc1
survivor count (dose: 25.0 mg/kg/injection, schedule: Q04DX003 (ip), vehicle: saline with Tween-80): 6 of 6

CCS(=O)(=O)OCCCCOS(=O)(=O)CC
T/C [5]: 131 % of control [5 of 6 alive]
survivor count [1]: 0 of 6

O=C(O)c1ccc(N=NSc2ncnc3nc[nH]c23)cc1O
T/C (dose: 2.0 mg/kg/injection, schedule: Q01DX009 (ip), vehicle: saline with Tween-80): 130 and 146 % of control
T/C (dose: 4.0 mg/kg/injection, schedule: Q01DX009 (ip), vehicle: saline with Tween-80): 126 % of control
T/C (dose: 6.0 mg/kg/injection, schedule: Q01DX009 (ip), vehicle: saline with Tween-80): 138 % of control
T/C (dose: 22.0 mg/kg/injection, schedule: Q04DX003 (ip), vehicle: saline with Tween-80): 130 % of control
survivor count [2]: 6 of 6
survivor count [5]: 6 of 6
T/C [3]: 131 % of control
survivor count [3]: 6 of 6
survivor count (dose: 100.0 mg/kg/injection, schedule: Q01DX009 (ip), vehicle: saline with Tween-80): 6 of 6
T/C [4]: 138 % of control
